Test [1] has as its target Androgen receptor splice variant 7 (human (endogenous in 22Rv1)) (UniProt P10275). Briefly: co-IP; 22Rv1 cells exposed to nobiletin (doses for 12 h; 20 uM for different lengths of time); Dynabeads Co-Immunoprecipitation Kit; precipitating antibody not stated.
For test [2], the target named is full-length androgen receptor (human (endogenous in 22Rv1)) (UniProt P10275). Described as above.
For test [3], the target named is Androgen receptor splice variant 7 (human (endogenous in 22Rv1)) (UniProt P10275). The description is as above. The source holds these as a separate data set.
Test [4] has the same target. The test is described as follows: co-IP; AR-V7 antibody on Dynabeads, 22Rv1 protein extracts, immunoblot for deubiquitinases (screen of 11 DUBs). On the technique in general: A western blot detects proteins with antibodies after separation by electrophoresis.

Protein sequences, listed by entry. Tags and fused reporters are not part of them. Lines headed by an entry give the natural chain unless they say otherwise; changes in a name come on top. Chains listed by the source or under a name are the forms on record and can include a tag or linker. Residues count along the entry.
UniProt P10275: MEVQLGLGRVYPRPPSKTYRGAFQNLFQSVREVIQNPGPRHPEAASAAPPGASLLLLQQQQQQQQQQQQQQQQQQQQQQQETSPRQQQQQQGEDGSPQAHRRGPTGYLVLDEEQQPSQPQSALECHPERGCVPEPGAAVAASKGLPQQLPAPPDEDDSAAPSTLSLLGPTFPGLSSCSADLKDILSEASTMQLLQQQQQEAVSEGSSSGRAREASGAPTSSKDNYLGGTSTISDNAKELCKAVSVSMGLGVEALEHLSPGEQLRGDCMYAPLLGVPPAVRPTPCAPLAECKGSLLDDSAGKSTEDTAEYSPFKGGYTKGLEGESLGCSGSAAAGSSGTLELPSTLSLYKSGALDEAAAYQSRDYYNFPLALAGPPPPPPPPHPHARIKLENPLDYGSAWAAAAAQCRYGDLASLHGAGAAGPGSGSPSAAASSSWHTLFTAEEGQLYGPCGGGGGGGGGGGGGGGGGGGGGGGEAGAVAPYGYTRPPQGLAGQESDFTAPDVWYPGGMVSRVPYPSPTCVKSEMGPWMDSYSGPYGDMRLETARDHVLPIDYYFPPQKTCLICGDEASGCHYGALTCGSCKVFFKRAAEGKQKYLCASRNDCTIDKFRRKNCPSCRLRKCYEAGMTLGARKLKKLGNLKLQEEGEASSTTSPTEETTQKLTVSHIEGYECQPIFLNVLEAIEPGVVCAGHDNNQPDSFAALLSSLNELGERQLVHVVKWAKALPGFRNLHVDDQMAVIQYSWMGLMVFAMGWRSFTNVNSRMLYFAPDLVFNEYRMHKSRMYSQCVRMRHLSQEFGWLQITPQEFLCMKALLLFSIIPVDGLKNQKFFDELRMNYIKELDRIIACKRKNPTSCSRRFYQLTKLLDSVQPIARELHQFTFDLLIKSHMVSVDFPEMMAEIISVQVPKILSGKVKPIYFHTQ
Androgen receptor splice variant 7 (human (endogenous in 22Rv1)) (P10275, form named): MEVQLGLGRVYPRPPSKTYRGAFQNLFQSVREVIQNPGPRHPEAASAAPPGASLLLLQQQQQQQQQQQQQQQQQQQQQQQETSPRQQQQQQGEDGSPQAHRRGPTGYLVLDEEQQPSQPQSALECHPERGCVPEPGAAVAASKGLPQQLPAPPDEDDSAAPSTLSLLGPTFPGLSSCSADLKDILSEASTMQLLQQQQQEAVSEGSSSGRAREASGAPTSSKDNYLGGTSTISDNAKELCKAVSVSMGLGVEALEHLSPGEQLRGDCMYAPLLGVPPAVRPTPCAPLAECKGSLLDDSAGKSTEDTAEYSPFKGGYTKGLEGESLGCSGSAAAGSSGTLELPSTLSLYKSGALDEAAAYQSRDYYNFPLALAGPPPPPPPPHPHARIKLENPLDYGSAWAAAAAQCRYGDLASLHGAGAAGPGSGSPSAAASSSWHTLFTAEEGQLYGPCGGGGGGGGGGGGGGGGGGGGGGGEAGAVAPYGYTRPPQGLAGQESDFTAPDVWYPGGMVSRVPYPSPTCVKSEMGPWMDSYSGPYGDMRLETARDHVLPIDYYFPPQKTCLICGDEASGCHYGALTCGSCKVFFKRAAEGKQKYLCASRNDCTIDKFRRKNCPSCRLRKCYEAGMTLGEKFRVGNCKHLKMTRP
UniProt P11021, residues 19-654: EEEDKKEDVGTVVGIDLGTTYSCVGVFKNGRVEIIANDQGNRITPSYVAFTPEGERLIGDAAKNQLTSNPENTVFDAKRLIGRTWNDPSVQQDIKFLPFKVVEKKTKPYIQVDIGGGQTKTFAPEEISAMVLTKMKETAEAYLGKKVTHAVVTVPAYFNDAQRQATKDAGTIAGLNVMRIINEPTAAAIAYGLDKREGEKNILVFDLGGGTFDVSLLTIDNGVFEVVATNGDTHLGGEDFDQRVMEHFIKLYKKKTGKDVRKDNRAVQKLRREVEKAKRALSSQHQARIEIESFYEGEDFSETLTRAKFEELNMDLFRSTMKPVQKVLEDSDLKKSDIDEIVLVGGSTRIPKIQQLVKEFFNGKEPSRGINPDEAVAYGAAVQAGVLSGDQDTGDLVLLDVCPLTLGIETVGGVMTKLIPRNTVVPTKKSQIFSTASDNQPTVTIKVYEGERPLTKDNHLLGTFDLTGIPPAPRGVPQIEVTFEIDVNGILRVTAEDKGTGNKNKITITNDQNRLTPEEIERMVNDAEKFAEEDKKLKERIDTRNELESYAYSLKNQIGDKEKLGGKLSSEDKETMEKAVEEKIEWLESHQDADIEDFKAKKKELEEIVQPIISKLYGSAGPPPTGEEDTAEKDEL

Results are given in words; binding and its absence hold for the method and conditions named. In cells and extracts the contact can be indirect. Some entries that bind do so weakly or less than the wild type.

As for GRP78 (from UniProt P11021 19-654), the binding result in test [1] is reported as “binds”.

B1: ubiquitin-specific protease 22 (enzyme, UniProt Q9UPT9 1-525)
chain: MVSRPEPEGEAMDAELAVAPPGCSHLGSFKVDNWKQNLRAIYQCFVWSGTAEARKRKAKSCICHVCGVHLNRLHSCLYCVFFGCFTKKHIHEHAKAKRHNLAIDLMYGGIYCFLCQDYIYDKDMEIIAKEEQRKAWKMQGVGEKFSTWEPTKRELELLKHNPKRRKITSNCTIGLRGLINLGNTCFMNCIVQALTHTPLLRDFFLSDRHRCEMQSPSSCLVCEMSSLFQEFYSGHRSPHIPYKLLHLVWTHARHLAGYEQQDAHEFLIAALDVLHRHCKGDDNGKKANNPNHCNCIIDQIFTGGLQSDVTCQVCHGVSTTIDPFWDISLDLPGSSTPFWPLSPGSEGNVVNGESHVSGTTTLTDCLRRFTRPEHLGSSAKIKCSGCHSYQESTKQLTMKKLPIVACFHLKRFEHSAKLRRKITTYVSFPLELDMTPFMASSKESRMNGQYQQPTDSLNNDNKYSLFAVVNHQGTLESGHYTSFIRQHKDQWFKCDDAIITKASIKDVLDSEGYLLFYHKQFLEYE
Consider B1, for which the binding entry in test [2], in test [3] and in test [4] was “binds” each time.

For the origin of these results see article PMC8455663.
